Test results: PMC5009372
These are yes or no findings as the source states them, for the method shown.

Target: T1, YL1 (YELLOW LEAF 1), full-length, in pGBKT7 (rice (Oryza sativa)) (UniProt Q0E3V2)
T1 sequence: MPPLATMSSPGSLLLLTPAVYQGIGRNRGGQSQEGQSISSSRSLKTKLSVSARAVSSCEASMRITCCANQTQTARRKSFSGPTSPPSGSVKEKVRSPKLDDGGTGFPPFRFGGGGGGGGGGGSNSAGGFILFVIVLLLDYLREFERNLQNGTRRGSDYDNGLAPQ
Assay: two-hybrid; Matchmaker Gold system (Clontech); YL1 in pGBKT7 (bait), subunits in pGADT7 (prey); S. cerevisiae AH109; growth on SD/-Ade/-His/-Leu/-Trp medium containing X-α-gal

binding: no binding
Substance: Cyt f of the Cyt b6/f complex, in pGADT7
